Paper PMC9464229
Results are given in words; binding and its absence hold for the method and conditions named. Binding seen in cells or lysates may run through a third protein. Some binding calls cover weakened binding; strength is not graded here. For part of these data: Where a sequence is shown, tags or fusion partners need not be part of it.

Sequences of proteins named here, by UniProt entry; tags and fusion partners are left off.
UniProt P46937: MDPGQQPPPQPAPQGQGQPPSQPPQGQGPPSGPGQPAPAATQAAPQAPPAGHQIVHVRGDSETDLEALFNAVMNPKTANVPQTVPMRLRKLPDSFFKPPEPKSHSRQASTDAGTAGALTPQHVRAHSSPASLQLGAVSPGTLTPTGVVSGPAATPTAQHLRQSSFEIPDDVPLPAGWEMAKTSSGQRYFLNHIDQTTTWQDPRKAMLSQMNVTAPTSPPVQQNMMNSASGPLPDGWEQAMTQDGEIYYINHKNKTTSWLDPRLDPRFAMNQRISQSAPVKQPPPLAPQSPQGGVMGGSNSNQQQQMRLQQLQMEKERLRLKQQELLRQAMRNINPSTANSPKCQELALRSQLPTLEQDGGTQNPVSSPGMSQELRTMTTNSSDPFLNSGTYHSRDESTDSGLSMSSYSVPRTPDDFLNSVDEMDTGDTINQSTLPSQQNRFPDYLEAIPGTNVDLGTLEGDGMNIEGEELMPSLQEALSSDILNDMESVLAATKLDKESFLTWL

Assays:
[1] = target: T1, P130cas (endogenous) (human (endogenous in A549)) (UniProt P56945); assay: co-IP; co-IP of P130cas and YAP (Fig. 3H, I); cells and whether endogenous or tagged proteins not stated
T1 sequence: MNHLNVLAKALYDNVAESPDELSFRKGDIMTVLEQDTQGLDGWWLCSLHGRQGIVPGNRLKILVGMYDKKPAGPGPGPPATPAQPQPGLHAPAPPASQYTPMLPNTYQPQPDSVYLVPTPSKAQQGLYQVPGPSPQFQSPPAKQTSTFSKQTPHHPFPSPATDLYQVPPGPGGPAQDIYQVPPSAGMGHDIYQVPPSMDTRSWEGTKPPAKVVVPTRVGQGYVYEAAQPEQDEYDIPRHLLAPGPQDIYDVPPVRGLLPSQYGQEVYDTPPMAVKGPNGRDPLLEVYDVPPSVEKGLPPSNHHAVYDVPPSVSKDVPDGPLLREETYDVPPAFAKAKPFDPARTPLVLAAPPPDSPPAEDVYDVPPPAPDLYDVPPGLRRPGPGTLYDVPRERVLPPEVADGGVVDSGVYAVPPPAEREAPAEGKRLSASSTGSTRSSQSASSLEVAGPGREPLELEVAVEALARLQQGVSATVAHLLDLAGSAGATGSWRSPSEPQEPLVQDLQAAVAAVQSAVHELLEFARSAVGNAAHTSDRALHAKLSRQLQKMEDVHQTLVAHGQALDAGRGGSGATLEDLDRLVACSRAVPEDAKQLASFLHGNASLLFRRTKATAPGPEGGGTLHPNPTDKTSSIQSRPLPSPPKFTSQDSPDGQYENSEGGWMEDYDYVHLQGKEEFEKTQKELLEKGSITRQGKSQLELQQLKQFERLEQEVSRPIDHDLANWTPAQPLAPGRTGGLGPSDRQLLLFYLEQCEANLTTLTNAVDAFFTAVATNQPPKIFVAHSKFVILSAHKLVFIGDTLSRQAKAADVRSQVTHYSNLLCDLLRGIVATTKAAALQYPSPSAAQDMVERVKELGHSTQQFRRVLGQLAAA

[2] = target: T1, P130cas (endogenous) (human (endogenous in A549)); assay: co-IP; endogenous P130cas, YAP or FAK immunoprecipitated from A549 cells and immunoblotted (Fig. 5A-C)
[3] = target: T2, Flag-P130cas (full-length) (UniProt P56945); assay: co-IP; tagged bait immunoprecipitated by Flag or Myc antibody from A549 cells infected with lentivirus or transfected with wild type or mutant, immunoblotted for the partners (Fig. 5D-F, Supplementary Fig. 6A)
T2 sequence: T1 sequence

binding [1]: binds
binding [2]: binds
binding [3]: binds
Substance: Yes-associated protein (YAP), endogenous (from UniProt P46937 1-504)
